Assay results reported in article PMC11144933.
These are yes or no findings as the source states them, for the method shown. Binding seen in cells or lysates may run through a third protein. Here binding means that the protein was enriched with, or labelled near, the bait; the list need not be complete.

By UniProt entry, the sequences of proteins in these tests, tags left out. Where a name states a change or a piece, a line headed by the entry shows the natural chain unless it says otherwise. Chains listed by the source or under a name are the forms on record and can include a tag or linker. Residues count along the entry.
UniProt Q61180: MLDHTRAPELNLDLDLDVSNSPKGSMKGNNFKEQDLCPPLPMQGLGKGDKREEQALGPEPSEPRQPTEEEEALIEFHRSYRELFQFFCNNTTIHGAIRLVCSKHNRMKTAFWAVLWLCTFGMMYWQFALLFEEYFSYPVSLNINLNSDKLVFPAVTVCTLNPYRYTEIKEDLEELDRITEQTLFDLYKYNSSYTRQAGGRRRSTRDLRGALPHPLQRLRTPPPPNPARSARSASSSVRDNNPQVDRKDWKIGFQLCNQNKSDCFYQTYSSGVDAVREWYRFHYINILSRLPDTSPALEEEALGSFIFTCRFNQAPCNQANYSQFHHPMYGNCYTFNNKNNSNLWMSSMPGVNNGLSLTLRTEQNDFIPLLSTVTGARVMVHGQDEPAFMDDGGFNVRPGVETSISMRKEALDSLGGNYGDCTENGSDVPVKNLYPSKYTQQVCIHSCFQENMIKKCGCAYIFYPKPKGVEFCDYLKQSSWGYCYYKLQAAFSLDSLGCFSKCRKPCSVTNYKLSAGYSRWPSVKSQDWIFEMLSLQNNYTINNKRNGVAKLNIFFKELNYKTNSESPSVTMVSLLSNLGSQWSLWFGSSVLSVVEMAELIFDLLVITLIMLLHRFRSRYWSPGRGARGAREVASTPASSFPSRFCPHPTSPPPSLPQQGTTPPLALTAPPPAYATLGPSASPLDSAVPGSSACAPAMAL
UniProt P63101: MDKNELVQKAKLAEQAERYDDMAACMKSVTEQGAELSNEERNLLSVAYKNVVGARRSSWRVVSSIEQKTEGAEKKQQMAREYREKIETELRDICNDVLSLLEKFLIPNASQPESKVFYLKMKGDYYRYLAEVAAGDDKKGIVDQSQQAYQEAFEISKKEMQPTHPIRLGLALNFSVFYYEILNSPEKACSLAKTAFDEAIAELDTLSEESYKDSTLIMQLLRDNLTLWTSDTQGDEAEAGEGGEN
UniProt P68372: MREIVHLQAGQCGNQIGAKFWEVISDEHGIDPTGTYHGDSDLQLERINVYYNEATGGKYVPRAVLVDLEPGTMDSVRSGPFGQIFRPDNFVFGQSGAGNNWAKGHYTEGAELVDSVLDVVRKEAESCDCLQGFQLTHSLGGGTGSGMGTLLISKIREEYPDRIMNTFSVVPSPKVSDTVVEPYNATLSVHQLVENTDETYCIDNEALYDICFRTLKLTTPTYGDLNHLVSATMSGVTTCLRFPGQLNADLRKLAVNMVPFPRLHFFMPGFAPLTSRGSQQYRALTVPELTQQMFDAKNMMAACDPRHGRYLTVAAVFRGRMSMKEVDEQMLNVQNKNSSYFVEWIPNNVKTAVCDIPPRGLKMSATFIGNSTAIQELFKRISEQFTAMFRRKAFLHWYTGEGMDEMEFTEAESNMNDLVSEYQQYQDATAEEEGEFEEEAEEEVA
UniProt P01027, residues 25-1663: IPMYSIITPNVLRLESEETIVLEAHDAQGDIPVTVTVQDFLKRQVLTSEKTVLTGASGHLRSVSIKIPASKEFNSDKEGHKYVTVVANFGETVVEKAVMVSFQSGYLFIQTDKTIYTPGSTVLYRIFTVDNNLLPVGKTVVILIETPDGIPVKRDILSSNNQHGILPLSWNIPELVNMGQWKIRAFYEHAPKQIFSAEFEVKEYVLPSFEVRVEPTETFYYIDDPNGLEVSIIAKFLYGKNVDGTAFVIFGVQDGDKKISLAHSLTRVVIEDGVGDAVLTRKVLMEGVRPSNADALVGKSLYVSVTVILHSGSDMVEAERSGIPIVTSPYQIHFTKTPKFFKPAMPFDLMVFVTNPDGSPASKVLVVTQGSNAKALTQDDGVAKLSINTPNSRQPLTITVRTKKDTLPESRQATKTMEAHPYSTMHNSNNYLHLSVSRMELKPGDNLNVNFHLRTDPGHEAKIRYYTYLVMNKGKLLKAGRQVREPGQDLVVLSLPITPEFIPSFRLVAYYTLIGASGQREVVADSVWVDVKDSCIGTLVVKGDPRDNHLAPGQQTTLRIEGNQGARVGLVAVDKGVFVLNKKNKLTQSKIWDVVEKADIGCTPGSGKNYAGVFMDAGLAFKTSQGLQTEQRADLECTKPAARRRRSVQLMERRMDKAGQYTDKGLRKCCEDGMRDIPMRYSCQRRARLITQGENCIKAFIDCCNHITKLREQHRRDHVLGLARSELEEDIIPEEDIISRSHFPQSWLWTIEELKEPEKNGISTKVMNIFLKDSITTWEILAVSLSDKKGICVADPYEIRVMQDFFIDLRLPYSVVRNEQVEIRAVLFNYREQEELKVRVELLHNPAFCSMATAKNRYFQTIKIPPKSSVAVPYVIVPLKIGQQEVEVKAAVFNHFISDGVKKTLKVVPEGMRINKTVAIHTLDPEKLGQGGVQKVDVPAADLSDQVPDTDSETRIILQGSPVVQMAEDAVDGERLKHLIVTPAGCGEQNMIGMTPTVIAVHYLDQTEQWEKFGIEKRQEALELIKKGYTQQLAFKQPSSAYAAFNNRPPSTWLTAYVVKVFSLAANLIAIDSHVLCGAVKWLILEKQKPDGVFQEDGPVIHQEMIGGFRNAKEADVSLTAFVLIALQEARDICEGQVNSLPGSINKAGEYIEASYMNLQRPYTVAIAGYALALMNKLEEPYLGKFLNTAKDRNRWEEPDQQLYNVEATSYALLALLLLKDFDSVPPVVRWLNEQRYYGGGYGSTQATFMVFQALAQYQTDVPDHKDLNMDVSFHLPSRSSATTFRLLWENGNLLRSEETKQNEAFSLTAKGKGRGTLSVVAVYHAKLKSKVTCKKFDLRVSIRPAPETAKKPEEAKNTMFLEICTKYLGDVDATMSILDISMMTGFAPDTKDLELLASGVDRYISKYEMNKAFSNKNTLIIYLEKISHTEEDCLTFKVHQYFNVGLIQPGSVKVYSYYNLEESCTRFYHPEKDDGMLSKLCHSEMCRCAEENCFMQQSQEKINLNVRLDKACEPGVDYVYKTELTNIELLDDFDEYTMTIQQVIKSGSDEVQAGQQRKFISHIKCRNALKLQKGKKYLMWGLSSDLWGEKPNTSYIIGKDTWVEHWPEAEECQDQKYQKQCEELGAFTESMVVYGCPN
Isoform 2 of Small glutamine-rich tetratricopeptide repeat-containing protein alpha (Q8BJU0-2, form named): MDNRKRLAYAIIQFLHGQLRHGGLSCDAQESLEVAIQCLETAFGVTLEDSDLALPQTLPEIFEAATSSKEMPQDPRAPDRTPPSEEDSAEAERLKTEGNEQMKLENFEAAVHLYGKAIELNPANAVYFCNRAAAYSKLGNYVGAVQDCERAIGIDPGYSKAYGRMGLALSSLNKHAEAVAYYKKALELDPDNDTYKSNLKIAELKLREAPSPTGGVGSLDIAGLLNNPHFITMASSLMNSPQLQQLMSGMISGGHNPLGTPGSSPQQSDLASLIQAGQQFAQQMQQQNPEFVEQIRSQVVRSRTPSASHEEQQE
UniProt P20029, residues 20-655: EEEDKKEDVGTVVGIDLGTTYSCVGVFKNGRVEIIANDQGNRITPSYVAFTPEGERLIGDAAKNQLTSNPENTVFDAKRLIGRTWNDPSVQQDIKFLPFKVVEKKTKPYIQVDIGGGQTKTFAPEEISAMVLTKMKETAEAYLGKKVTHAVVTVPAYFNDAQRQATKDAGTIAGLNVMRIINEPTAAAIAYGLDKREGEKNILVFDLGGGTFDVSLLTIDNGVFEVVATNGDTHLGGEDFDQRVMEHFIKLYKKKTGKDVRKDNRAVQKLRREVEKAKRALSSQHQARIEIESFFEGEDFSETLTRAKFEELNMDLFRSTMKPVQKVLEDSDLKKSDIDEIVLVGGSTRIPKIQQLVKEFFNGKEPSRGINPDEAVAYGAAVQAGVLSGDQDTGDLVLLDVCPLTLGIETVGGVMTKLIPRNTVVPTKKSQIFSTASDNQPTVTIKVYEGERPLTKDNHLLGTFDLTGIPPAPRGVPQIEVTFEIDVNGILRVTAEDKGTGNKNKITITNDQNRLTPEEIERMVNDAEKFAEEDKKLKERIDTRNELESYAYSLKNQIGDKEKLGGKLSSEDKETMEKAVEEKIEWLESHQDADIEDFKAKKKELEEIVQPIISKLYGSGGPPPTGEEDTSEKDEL

Biological target: epithelial sodium channel alpha subunit (α-ENaC) (mouse (endogenous in MIN6)) (UniProt Q61180)
Test: affinity purification with mass spectrometry; LC-MS/MS screen for α-ENaC binding proteins in MIN6 cells; how α-ENaC was isolated is not told

14-3-3 protein zeta/delta (from UniProt P63101 1-245)
binding: binds

Tubulin beta-4B chain (from UniProt P68372 1-445)
binding: binds

Complement C3 (from UniProt P01027 25-1663)
binding: binds

Isoform 2 of Small glutamine-rich tetratricopeptide repeat-containing protein alpha (from UniProt Q8BJU0-2 1-314)
binding: binds

78 kDa glucose-regulated protein (from UniProt P20029 20-655)
binding: binds
